Our source for the T/C and survivor count values is PubChem BioAssay AID320 (DTP/NCI, 2004).

This assay deals with BDF1 mice, P329 reticulum cell sarcoma ip, survival T/C. Briefly: NCI In Vivo Anticancer Drug Screen. Data for tumor model P329 Reticulum Cell Sarcoma (intraperitoneal) in B6D2F1 (BDF1) mice. As to conditions: T/C endpoint: median survival time, higher T/C = longer survival. On the procedure:
The antitumor activity of compounds was measured in mice bearing transplantable tumors. Survival or tumor size were measured and the results are expressed as the measurement made in the treated group (T) divided by the measurement made in the vehicle treated control group (C). The tumor model used in this assay is P329 Reticulum Cell Sarcoma (intraperitoneal) in B6D2F1 (BDF1) mice

[1] abbreviates: dose: 0.25 mg/kg/injection, schedule: Q01DX010 (ip), vehicle: saline.
Setting [2] is: dose: 0.5 mg/kg/injection, schedule: Q01DX010 (ip), vehicle: saline.
[3] abbreviates: dose: 8.0 mg/kg/injection, schedule: Q01DX010 (ip), vehicle: saline.
The mark [4] stands for this setting: dose: 50.0 mg/kg/injection, schedule: Q01DX010 (ip), vehicle: saline.
Where [5] appears, read: dose: 100.0 mg/kg/injection, schedule: Q01DX010 (ip), vehicle: saline.
Setting [6] is: dose: 120.0 mg/kg/injection, schedule: Q01DX010 (ip), vehicle: saline.
The mark [7] stands for this setting: dose: 62.5 mg/kg/injection, schedule: Q01DX010 (ip), vehicle: saline.
Setting [8] is: dose: 125.0 mg/kg/injection, schedule: Q01DX010 (ip), vehicle: saline.
Where [9] appears, read: dose: 20.0 mg/kg/injection, schedule: Q01DX010 (ip), vehicle: saline.
Where [10] appears, read: dose: 40.0 mg/kg/injection, schedule: Q01DX010 (ip), vehicle: saline.
Setting [11] is: dose: 2.5 mg/kg/injection, schedule: Q01DX010 (ip), vehicle: saline.
Where [12] appears, read: dose: 5.0 mg/kg/injection, schedule: Q01DX010 (ip), vehicle: saline.
Where [13] appears, read: dose: 10.0 mg/kg/injection, schedule: Q01DX010 (ip), vehicle: saline.

The list does not hold the whole screen: it is rich in T/C values a quarter to a half above the control, in often repeated tests (any T/C) and in doses without a T/C. Other doses and runs of a compound stand elsewhere. T/C: endpoint of the treated group in % of that of the vehicle group. Some entries give survivors of the animals treated and no T/C: the source holds a T/C of zero for them, seemingly a mark for toxic or unscored doses. Some survivor counts are full or nearly so, which does not show that the dose was tolerated: the source hardly ever lists a survival T/C far under the control, and the zero likely stands for such cases as well. Survivors were counted at the toxicity check, usually on the fifth day, unless a day is given; later deaths do not show. Schedule codes are those of the source, read here as Q, the interval in days (D) or hours (H), X, the number of doses. Some doses were run more than once; the results are listed from low to high. Where survival is the endpoint, this PubChem deposit counts one and a half times the control or more as active, and values a quarter to a half above the control carry no call in these data; other NCI protocols may use other cut-offs. Some T/C values carry the count of animals alive at the toxicity check (mostly the fifth day); without a count, all were alive then. *1 amine or outer side, *2 acyl side, *3 side chain or, on linkers, in order; H or OH if unused. Where a SMILES comes first, the peptide text is derived from it. Bridges are numbered along the chain shown (N, C = ends). Roman numbers before positions name the chains, in order. [ ]: non-standard residue; d: D form. Actinocin(9to1) = Cc1c2oc3c(C)ccc(C(=O)[*:1])c3nc-2c(C(=O)[*:2])c(N)c1=O; aThr = C[C@H](O)[C@H](N)C(=O)O; NMeV = CN[C@H](C(=O)O)C(C)C; Sar = CNCC(=O)O

With `CC[C@]1(O)C[C@H]2CN(CCc3c([nH]c4ccccc34)[C@@](C(=O)OC)(c3cc4c(cc3OC)N(C=O)[C@H]3[C@@](O)(C(=O)OC)[C@H](OC(C)=O)[C@]5(CC)C=CCN6CC[C@]43[C@@H]65)C2)C1`, the T/C (dose: 0.12 mg/kg/injection, schedule: Q01DX010 (ip), vehicle: saline) is 127 % of control. Besides, the survivor count was 6 of 6 under setting [1]; 5 of 6 and 6 of 6 under setting [2].

`CS(=O)(=O)OCCN(CCOS(C)(=O)=O)c1ccc(N=O)cc1`: the T/C runs as follows: under setting [1], 126 % of control; under setting [2], 142 % of control. Moreover, the survivor count runs as follows: (dose: 2.0 mg/kg/injection, schedule: Q01DX010 (ip), vehicle: saline) 5 of 6 and 6 of 6; (dose: 4.0 mg/kg/injection, schedule: Q01DX010 (ip), vehicle: saline) 6 of 6; under setting [3], 5 of 6; (dose: 16.0 mg/kg/injection, schedule: Q01DX010 (ip), vehicle: saline) 0 of 6.

On to `CO[C@@H]1[C@@H](OC2OC(C)C(OC3CC(C)(O)C(OC(=O)CC(C)C)C(C)O3)C(N(C)C)C2O)[C@@H](CC=O)C[C@@H](C)C(=O)/C=C/C2O[C@H]2C[C@@H](C)OC(=O)C[C@H]1OC(C)=O` (stereo partly specified), for which, under “dose: 600.0 mg/kg/injection, schedule: Q01DX010 (ip), vehicle: saline”, the survivor count is 7 of 7.

Turning to `O=C(Nc1ccc(C2=NCCN2)cc1)c1ccc(C(=O)Nc2ccc(C3=NCCN3)cc2)c([N+](=O)[O-])c1`, the T/C (dose: 12.0 mg/kg/injection, schedule: Q01DX010 (ip), vehicle: saline) was 133 and 142 % of control. In addition, the survivor count (dose: 18.0 mg/kg/injection, schedule: Q01DX010 (ip), vehicle: saline) is recorded as 6 of 6.

Turning to `O=C(Nc1ccc(C2=NCCN2)cc1)c1cccc(C(=O)Nc2ccc(C3=NCCN3)cc2)c1`, the T/C under setting [3] was 138 and 146 % of control.

Consider `CN(C)/N=N/c1nc[nH]c1C(N)=O`, for which the T/C is, setting by setting: (dose: 25.0 mg/kg/injection, schedule: Q01DX010 (ip), vehicle: saline) 138 % of control; under setting [4], 125 and 138 % of control; under setting [5], 135 % of control.

On to `Cc1c2oc3c(C)ccc(C(=O)N[C@@H]4C(=O)N[C@H](C(C)C)C(=O)N5CCC[C@H]5C(=O)N(C)CC(=O)N(C)[C@@H](C(C)C)C(=O)O[C@H]4C)c3nc-2c(C(=O)N[C@@H]2C(=O)N[C@H](C(C)C)C(=O)N3CCC[C@H]3C(=O)N(C)CC(=O)N(C)[C@@H](C(C)C)C(=O)O[C@H]2C)c(N)c1=O` (I: [aThr][dV]P[Sar][NMeV] / II: [aThr][dV]P[Sar][NMeV]; ester I:1-I:C, II:1-II:C; linker I:N-II:N via Actinocin(9to1)), for which the T/C runs as follows: (dose: 25.0 micrograms/kg/injection, schedule: Q01DX010 (ip), vehicle: other) 126 and 137 % of control; (dose: 50.0 micrograms/kg/injection, schedule: Q01DX010 (ip), vehicle: other) 142 % of control. Further, under “dose: 100.0 micrograms/kg/injection, schedule: Q01DX010 (ip), vehicle: other”, the survivor count is given as 6 of 6.

For `CC(=O)O[C@]1(C(C)=O)CC[C@H]2[C@@H]3C[C@H](C)C4=CC(=O)C=C[C@]4(C)[C@@]3(F)[C@@H](O)C[C@@]21C`, for the setting “dose: 100.0 mg/kg/injection, schedule: Q01DX010 (sc), vehicle: steroid suspending solution”, the survivor count was 6 of 6.

For `N=[N+]=CC(=O)OCC(N)C(=O)O` (stereo unspecified), under “dose: 3.13 mg/kg/injection, schedule: Q01DX010 (ip), vehicle: saline”, the T/C was 138 and 145 % of control.

With `CN(C)c1ccc(Nc2c3ccccc3nc3ccccc23)cc1`, the T/C (dose: 36.0 mg/kg/injection, schedule: Q01DX010 (ip), vehicle: saline) was 138 % of control; the T/C (dose: 54.0 mg/kg/injection, schedule: Q01DX010 (ip), vehicle: saline) is 128 and 142 % of control; the T/C (dose: 80.0 mg/kg/injection, schedule: Q01DX010 (ip), vehicle: saline) is 142 % of control. In addition, the survivor count under setting [6] is given as 4 of 6.

Regarding `CCN(CCNc1ccc(C)c2sc3cc(Cl)ccc3c(=O)c12)CC(C)O` (stereo unspecified), the survivor count under setting [7] was 6 of 6 and the survivor count under setting [8] is on record as 6 of 6.

As to `CCCSc1ncnc2nc[nH]c12`, under setting [7], the T/C is 134 % of control. For the same molecule, the survivor count by setting is: under setting [8], 6 of 6; (dose: 250.0 mg/kg/injection, schedule: Q01DX010 (ip), vehicle: saline) 6 of 6.

As for `O=c1[nH]c(=O)n(C2CC(O)C(CO)O2)cc1F` (stereo unspecified), the T/C was 138 % of control under setting [9] and 133 % of control under setting [10].

In the case of `CS(=O)(=O)OCCCl`, the survivor count (dose: 150.0 mg/kg/injection, schedule: Q01DX010 (ip), vehicle: saline) is reported as 3 of 6.

Turning to `CC[n+]1c(-c2ccccc2)c2cc(N)ccc2c2ccc(N)cc21`, the T/C is, setting by setting: under setting [11], 130 % of control; under setting [12], 135 and 138 % of control; under setting [13], 125 and 146 % of control. Further, the survivor count under setting [9] is listed as 6 of 6.

For the molecule `CS(=O)(=O)OCCC(=O)N1CCN(C(=O)CCOS(C)(=O)=O)CC1`, the T/C is, setting by setting: under setting [4], 125 % of control; under setting [5], 146 % of control.

With `N#CCSc1ncnc2nc[nH]c12`, the T/C (dose: 30.0 mg/kg/injection, schedule: Q01DX010 (ip), vehicle: saline) is 134 % of control. The survivor count is, setting by setting: under setting [6], 5 of 6; (dose: 240.0 mg/kg/injection, schedule: Q01DX010 (ip), vehicle: saline) 6 of 6.

Take `O=c1[nH]cc(F)c(=O)[nH]1`: the T/C reads like this: under setting [12], 125 % of control; under setting [13], 134 and 137 % of control. Under setting [10], the survivor count is reported as 6 of 6.

Take `Nc1nc2n[nH]nc2c(=O)[nH]1`: the survivor count (dose: 25.0 mg/kg/injection, schedule: Q01DX010 (ip), vehicle: alkali diluted with saline) is reported as 1 of 6. Also, the T/C (dose: 50.0 mg/kg/injection, schedule: Q01DX010 (ip), vehicle: alkali diluted with saline) is 138 and 142 % of control.

Regarding `Cc1cc(N(CCCl)CCCl)ccc1N=Nc1ccccc1C(=O)O`, the T/C runs as follows: under setting [13], 125 % of control; under setting [9], 128 and 128 % of control [5 of 6 alive]. Further, the survivor count under setting [10] is recorded as 6 of 6.

In the case of `Nc1nc(N)c2nc(CNc3ccc(C(=O)NC(CCC(=O)O)C(=O)O)cc3)cnc2n1` (stereo unspecified), the T/C (dose: 0.2 mg/kg/injection, schedule: Q01DX010 (ip), vehicle: other) was 146 % of control. Besides, under “dose: 0.4 mg/kg/injection, schedule: Q01DX010 (ip), vehicle: other”, the survivor count is 6 of 6.

For the molecule `S=P(N1CC1)(N1CC1)N1CC1`, the T/C (dose: 3.0 mg/kg/injection, schedule: Q01DX010 (ip), vehicle: saline) is 126 and 130 % of control.

Consider `O[C@H](CN1CC1)[C@@H](O)CN1CC1`, for which the T/C was 132 % of control (dose: 125.0 micrograms/kg/injection, schedule: Q01DX010 (ip), vehicle: saline) and 143 % of control (dose: 250.0 micrograms/kg/injection, schedule: Q01DX010 (ip), vehicle: saline). For the same molecule, the survivor count (dose: 500.0 micrograms/kg/injection, schedule: Q01DX010 (ip), vehicle: saline) was 6 of 6.

With `COC(=O)[C@@H]1c2cc3c(c(O)c2[C@@H](OC2OC(C)C(OC)C(C)(OC)C2OC)C[C@]1(C)O)C(=O)c1c(O)cc2c(c1C3=O)O[C@H]1O[C@]2(C)[C@H](O)[C@@H](N(C)C)[C@@H]1O` (stereo partly specified), the survivor count (dose: 1000.0 micrograms/kg/injection, schedule: Q01DX010 (ip), vehicle: saline) was 6 of 6.

Consider `CC/C(=C(/CC)c1ccc(O)cc1)c1ccc(O)cc1`, for which the survivor count under setting [5] was 6 of 6.

Consider `CSc1ncnc2nc[nH]c12`, for which, under setting [5], the T/C was 126 and 138 % of control.

Turning to `COS(C)(=O)=O`, the survivor count under setting [5] is given as 6 of 6.

`N=C(N)SCc1c2ccccc2c(CSC(=N)N)c2ccccc12`: the T/C was 139 % of control under setting [12], 135 % of control under setting [13], 132 % of control under setting [9] and 125 % of control under setting [10].

On to `NC(Cc1ccc(N(CCCl)CCCl)cc1)C(=O)O` (stereo unspecified), for which, under setting [11], the T/C was 142 % of control. The survivor count under setting [9] is reported as 5 of 6.
